Amino acid sequences for entries named in this document (tags omitted). A change or cut given only in a name is not applied to a line headed by its entry.
UniProt Q6PHR2: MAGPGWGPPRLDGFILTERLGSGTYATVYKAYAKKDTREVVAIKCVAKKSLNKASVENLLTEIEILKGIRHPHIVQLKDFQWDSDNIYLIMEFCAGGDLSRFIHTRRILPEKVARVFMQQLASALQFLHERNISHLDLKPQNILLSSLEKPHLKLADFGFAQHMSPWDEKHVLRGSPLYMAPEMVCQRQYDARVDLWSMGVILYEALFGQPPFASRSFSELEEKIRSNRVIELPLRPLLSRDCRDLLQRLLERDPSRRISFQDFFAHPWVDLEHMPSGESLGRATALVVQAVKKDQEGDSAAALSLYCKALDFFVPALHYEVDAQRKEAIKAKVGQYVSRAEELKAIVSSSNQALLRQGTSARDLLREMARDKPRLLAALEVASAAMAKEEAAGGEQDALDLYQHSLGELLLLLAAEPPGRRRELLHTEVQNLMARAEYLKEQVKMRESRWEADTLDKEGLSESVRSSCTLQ

Structures can show the parent of a compound that is named as a salt. The list shows a part of the results. The calls rarely recur for the same compound in another form.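 Kinases, fused to nanoluciferase, were expressed in K562 cells; luminescence was measured every 4 h from 2 to 18 h as percent of control (DMSO = 100%, positive control = 0%). A time point is decreased if signal falls significantly (2 sigma). Hits were called by the authors by a rule that is not shown; the count of time points alone does not decide it.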
What follows are molecules tested against ULK3 (UniProt Q6PHR2) (assay: number of time points (of 5) at which kinase-Nluc abundance scored as decreased, DMSO-normalised (count); higher = more persistent destabilization). Settings: K562; 2-18 h.
For `CC(C)CN(CC(=O)N1CCN(CC(OCc2ccc3ccccc3c2)c2ccc(Cl)cc2Cl)CC1)CC(C)C` (configuration not stated) [LYN-1604 (dihydrochloride)] (2.5 µM), the “number of time points” value was 0.
In the case of `CO[C@H]1C[C@@H]2CC[C@@H](C)[C@@](O)(O2)C(=O)C(=O)N2CCCC[C@H]2C(=O)O[C@H]([C@H](C)C[C@@H]2CC[C@@H](O)[C@H](OC)C2)CC(=O)[C@H](C)/C=C(\C)[C@@H](O)[C@@H](OC)C(=O)[C@H](C)C[C@H](C)/C=C/C=C/C=C/1C` [Rapamycin] (10 µM), the “number of time points” value is reported as 0.
With `Cc1ccc(Nc2cc(-c3cccc(N4C(=O)c5ccccc5C4=O)c3)ncn2)cc1NS(C)(=O)=O` (10 µM) the “number of time points” value was 0.
With `Nc1cc(Nc2ccc(S(N)(=O)=O)cc2)ncn1` (10 µM) the “number of time points” value was 0.
`CCOc1cc(C(=O)N2CCC(N3CCN(C)CC3)CC2)ccc1Nc1ncc2c(n1)N(C1CCCC1)c1ccccc1C(=O)N2C` (10 µM) was tested, and the “number of time points” value was 0.
`COCCOc1ccc(-c2cn(-c3ccccc3)c3nc[nH]c(=O)c23)cc1` (10 µM) was tested, and the “number of time points” value was 0.
With `Cc1cc(O)c(C(C)C)cc1N=O` [Poloxime] (10 µM) the “number of time points” value was 0.
